Test results as given in patent US20040014942A1, “Mutant strains capable of producing chemically diversified proteins by incorporation of non-conventional amino acids” (priority 2000, published 2004).

test system: CU505 wt valS; experiment: Chemical composition of extracted proteins (amino acid analysis of hydrolysate); type: cell-based, E. coli; conditions: +Abu (0.2 mM L-amino-butyrate), valine limitation

Compound	Amino acid incorporated in the proteins
C[C@H](N)C(=O)O [Ala]	1.32 Leu equivalents
CC[C@H](C)[C@H](N)C(=O)O [isoleucine]	0.61 Leu equivalents
CC(C)[C@H](N)C(=O)O [valine]	0.83 Leu equivalents
L-2-amino-butyrate	0 Leu equivalents
